According to the supplement of paper PMC8732350:
Counter-ions that a name gives are not always drawn. ± gives the standard deviation of the averaged measurements. The list shows a part of the results. Most values lie within the scatter of the assay; repeated measurements hardly agree.

System: A549
Experiment: surface PD-L1 immunofluorescence intensity relative to IFN-gamma-only control (ratio); higher = more PD-L1 expression
Settings: 10 µM; exposure time 24 h; IFN-gamma 100 ng/mL

Row | SMILES | surface PD-L1 immunofluorescence intensity
1 | Cc1cccn2c(=O)c(-c3nnn[nH]3)cnc12 [Pemirolast potassium] | 0.801
2 | CCCc1c(OCCCOc2ccc(OCC(=O)O)cc2)ccc(C(C)=O)c1O | 0.916
3 | O=C1CC2(CCCC2)CC(=O)N1CCCCNCC1COc2ccccc2O1 (centres undefined) | 1.01
4 | CC1=C(C(=O)O)N2C(=O)[C@@H](NC(=O)[C@H](N)c3ccccc3)[C@H]2SC1 [Cephalexin (Cefalexin)] | 1.11
5 | CC(C)(C)NCC(O)COc1cccc2c1CC(O)C(O)C2 (centres undefined) [Nadolol] | 1.09
6 | Cc1cccc(C)c1NC(=O)C[N+](C)(C)C | 1.1
7 | O=C(OCCN1CCCCC1)c1c[nH]c2ccccc12 | 0.969
8 | C[C@H](CCC(=O)NCCS(=O)(=O)O)[C@H]1CC[C@H]2[C@@H]3[C@H](O)C[C@@H]4C[C@H](O)CC[C@]4(C)[C@H]3C[C@H](O)[C@]12C [Taurocholic acid] | 1.06
9 | CC(C)(C)OC(=O)Nc1ccc(-c2cc(C(=O)NCCCCCCC(=O)NO)no2)cc1 | 0.989
10 | Nc1nc(Nc2ccccc2)nc2c1ncn2[C@@H]1O[C@H](CO)[C@@H](O)[C@H]1O | 1.06
11 | Cc1nc(C)c(C)nc1C [Tetramethylpyrazine] | 0.96
12 | COc1cc2c(cc1Cc1cccc(Cl)c1F)c(=O)c(C(=O)O)cn2[C@H](CO)C(C)C [Elvitegravir (GS-9137)] | 1.19
13 | COc1ccc2cc3[n+](cc2c1OC)CCc1cc2c(cc1-3)OCO2 [Berberine HCl] | 1.02
14 | Nc1ncnc2c1ncn2[C@@H]1O[C@H](CO)C[C@H]1O [Cordycepin] | 0.963
15 | Cn1sc(=O)n(Cc2ccccc2)c1=O | 1.04
16 | Cc1nccn1CC1CCc2c(c3ccccc3n2C)C1=O (centres undefined) [Ondansetron Hydrochloride] | 1.05
17 | O=C1C(O)=C(O)C(=O)C(O)=C1O [Tetrahydroxy-1,4-quinone monohydrate] | 1.01
18 | CC(=O)NC[C@H]1CN(c2ccc(N3CCOCC3)c(F)c2)C(=O)O1 [Linezolid] | 1.01
19 | COc1ccc2c(c1)c(CC(=O)OCC(=O)O)c(C)n2C(=O)c1ccc(Cl)cc1 [Acemetacin] | 1.01
20 | Cc1cccc(C)c1NC(=O)CN1CCN(CCCC(c2ccc(F)cc2)c2ccc(F)cc2)CC1 [Lidoflazine] | 0.951
21 | CC(=O)O[C@]1(C(C)=O)CC[C@H]2[C@@H]3C=C(C)C4=CC(=O)CC[C@]4(C)[C@H]3CC[C@@]21C [Megestrol acetate] | 0.995
22 | CC(=O)O[C@]1(C(C)=O)CC[C@H]2[C@@H]3C=C(C)C4=CC(=O)CC[C@]4(C)[C@H]3CC[C@@]21C [Megestrol Acetate] | 0.97
23 | Nc1nnc(-c2cccc(Cl)c2Cl)c(N)n1 [Lamotrigine] | 1.04
24 | NC(C(=O)O)c1ccc(C(=O)O)c(C(=O)O)c1 (racemic) | 0.972
25 | Nc1nc(=O)[nH]cc1F [Flucytosine] | 0.983
26 | CCN1CCN(c2ccc(Nc3cc(N(C)C(=O)Nc4c(Cl)c(OC)cc(OC)c4Cl)ncn3)cc2)CC1 | 1.08
27 | Oc1cc(O)cc(/C=C/c2ccc(O)c(O)c2)c1 [Piceatannol] | 0.972 ± 0.053

Row | SMILES | surface PD-L1 immunofluorescence intensity
28 | O=C1c2ccccc2CCC1CNCCc1ccc(O)cc1 (centres undefined) [HEAT hydrochloride] | 0.985
29 | COc1cc2ncnc(Nc3ccc(O)c(Br)c3)c2cc1OC | 0.933 ± 0.024
30 | O=C(c1ccc(Cl)cc1Cl)n1nnc2ccccc21 | 0.994
31 | CCCC(=O)Nc1cccc(NC(=O)c2ccccc2Br)c1 | 0.954
32 | COc1nc(C)cnc1NS(=O)(=O)c1cccnc1-c1ccc(-c2nnco2)cc1 [Zibotentan (ZD4054)] | 1.11
33 | N=C(N=C(N)N)N1CCOCC1 [Moroxidine hydrochloride] | 0.907
34 | Cn1cc(/C=C/C(=O)c2cccc(F)c2)cc1/C=C/C(=O)NO | 1.04
35 | CC(=O)OCC(=O)[C@@]12OC3(CCCC3)O[C@@H]1C[C@H]1[C@@H]3CCC4=CC(=O)C=C[C@]4(C)[C@@]3(F)[C@@H](O)C[C@@]12C [Amcinonide] | 0.823
36 | N[C@@H](CC(=O)N1CCn2c(nnc2C(F)(F)F)C1)Cc1cc(F)c(F)cc1F [Sitagliptin phosphate monohydrate] | 0.955
37 | Nc1ccccc1NC(=O)CCCCCCC(=O)Nc1ccccc1 | 1.02
38 | C[C@@H]1O[C@@H](O[C@H]2[C@H](Oc3cc(O)c4c(c3)O[C@H](c3ccc(O)cc3)CC4=O)O[C@H](CO)[C@@H](O)[C@@H]2O)[C@H](O)[C@H](O)[C@H]1O [Naringin (Naringoside)] | 1.05
39 | C[C@H](CCC(=O)O)[C@H]1CC[C@H]2[C@@H]3C[C@H](O)[C@@H]4C[C@H](O)CC[C@]4(C)[C@H]3CC[C@]12C [Hyodeoxycholic acid (HDCA)] | 0.997
40 | O=C(Nc1ccccc1)OCC(CN1CCCCC1)OC(=O)Nc1ccccc1 (centres undefined) [Diperodon hydrochloride] | 0.984
41 | CC1(C)C(=O)N(CCN2CCC(C(=O)c3ccc(F)cc3)CC2)c2ccccc21 | 0.794
42 | CCN(CC)CC1CCCCN1CC(=O)N1c2ccccc2C(=O)Nc2cccnc21 (centres undefined) | 0.91
43 | C[C@@H]1O[C@@H](OC[C@H]2O[C@@H](Oc3c(-c4ccc(O)c(O)c4)oc4cc(O)cc(O)c4c3=O)[C@H](O)[C@@H](O)[C@@H]2O)[C@H](O)[C@H](O)[C@H]1O [Rutin (Rutoside)] | 1.1
44 | CCCC(=O)Nc1ccc(OCC(O)CNC(C)C)c(C(C)=O)c1 (centres undefined) [Acebutolol hydrochloride] | 0.921
45 | COc1ccnc2[nH]cc(C(=O)C(=O)N3CCN(C(=O)c4ccccc4)C[C@H]3C)c12 | 1
46 | CO/N=C(\C(=O)N[C@@H]1C(=O)N2C(C(=O)O)=C(CSC(=O)c3ccco3)CS[C@H]12)c1csc(N)n1 [Ceftiofur HCl] | 1
47 | N[C@@H]1CCN(O)C1=O | 1.09
48 | CC(=O)Nc1ccc(OCC(O)CNC(C)C)cc1 (centres undefined) [Practolol] | 1.06
49 | O=C1NN(C(=O)Nc2ccc(Br)cc2)[C@@H](c2ccccc2)[C@@H]1c1ccccc1 | 0.983
50 | CN1[C@@H]2CC[C@H]1C[C@@H](OC(c1ccccc1)c1ccccc1)C2 [Benztropine mesylate] | 1.035 ± 0.0082
51 | CNCCCCOc1ccccc1Cc1ccccc1 [Bifemelane hydrochloride] | 0.857
52 | CCCCOC(=O)c1ccc(O)cc1 [Butylparaben] | 1.08
53 | CCCc1nc2c(C)cc(-c3nc4ccccc4n3C)cc2n1Cc1ccc(-c2ccccc2C(=O)O)cc1 [Telmisartan] | 0.995
54 | CC(=O)/N=c1/sc(S(N)(=O)=O)nn1C [Methazolamide] | 0.898

Row | SMILES | surface PD-L1 immunofluorescence intensity
55 | CC1=CC(=O)c2ccccc2C1=O [Menadione] | 1.03
56 | Nc1nccc(-c2ccc3noc(-c4ccc(Cl)cc4)c3c2)n1 [PIM 1 Inhibitor 2] | 0.976
57 | CCCCC1C(=O)N(c2ccccc2)N(c2ccccc2)C1=O [Phenylbutazone] | 0.992
58 | Nc1ncnc2c1nc(Br)n2[C@@H]1O[C@@H]2COP(=O)(O)O[C@H]2[C@H]1O [8-Bromo-cAMP, sodium salt] | 0.92
59 | NS(=O)(=O)C#Cc1ccccc1 [Pifithrin->m] | 0.953
60 | CO[C@@H]1[C@H](O)[C@@H](CO)O[C@H]1n1cnc2c(NC3CCCCC3)ncnc21 | 0.994
61 | CC(C)C1C2CCC(C2)C1N (centres undefined) | 1
62 | CNCC[C@@H](Oc1ccccc1C)c1ccccc1 [Tomoxetine hydrochloride] | 0.99
63 | O=C(CCCCC(=O)Nc1c(I)cc(I)c(C(=O)O)c1I)Nc1c(I)cc(I)c(C(=O)O)c1I [Iodipamide] | 1.06
64 | COCCCOc1ccnc(C[S+]([O-])c2nc3ccccc3[nH]2)c1C (centres undefined) [Rabeprazole Sodium salt] | 1.05
65 | O=C(O)Cc1cc(I)c(Oc2ccc(O)c(I)c2)c(I)c1 [Tiratricol, 3,3',5-triiodothyroacetic acid] | 0.95
66 | O=P(O)(O)C(O)(Cc1cccnc1)P(=O)(O)O [Risedronate sodium] | 1.07
67 | O=P(O)(O)C(O)(Cc1cccnc1)P(=O)(O)O [Risedronic acid (Actonel)] | 1.08
68 | O=C(O)c1cc(O)c(O)c(O)c1 [Gallic acid] | 1.14
69 | CCN(CC)C(=O)N1CCN(C)CC1 [Diethylcarbamazine citrate] | 0.874
70 | Cn1cnc(N)c2ncnc1-2 [3-Methyladenine (3-MA)] | 1.05
71 | Cn1cnc(N)c2ncnc1-2 [3-Methyladenine] | 0.943
72 | CC[C@]1(O)C[C@@H]2CN(CCc3c([nH]c4ccccc34)[C@@](C(=O)OC)(c3cc4c(cc3OC)N(C)[C@H]3[C@@](O)(C(=O)OC)[C@H](OC(C)=O)[C@]5(CC)C=CCN6CC[C@]43[C@@H]65)C2)C1 [Vinblastine] | 1.13
73 | Cc1cc(CS(=O)(=O)c2ccccc2)cc(OCc2ccc(CN3CCC[C@@H]3CO)cc2)c1 | 1.01
74 | Nc1cc(N2CCCCC2)nc(N)[n+]1OS(=O)(=O)[O-] [Minoxidil sulfate] | 0.991
75 | CCN(CCCc1ccccc1)CCCc1ccccc1 [Alverine citrate salt] | 0.932
76 | COc1cc2c(cc1OC)CN(CCc1ccc(NC(=O)c3cccc4c(=O)c5cccc(OC)c5[nH]c34)cc1)CC2 [Elacridar] | 1.16
77 | Clc1ccc(COC(Cn2ccnc2)c2ccc(Cl)cc2Cl)cc1 (centres undefined) [Econazole nitrate] | 0.969
78 | C[C@H](CCC(=O)NCC(=O)O)[C@H]1CC[C@H]2[C@@H]3[C@H](O)C[C@@H]4C[C@H](O)CC[C@]4(C)[C@H]3C[C@H](O)[C@]12C [Glycocholic acid] | 1.03
79 | Clc1ccccc1C(c1ccccc1)(c1ccccc1)n1ccnc1 [Clotrimazole] | 0.901

Single values from the entries so far:
Under surface PD-L1 immunofluorescence intensity, COc1cc2c(cc1OC)CN(CCc1ccc(NC(=O)c3cccc4c(=O)c5cccc(OC)c5[nH]c34)cc1)CC2 [Elacridar] shows 1.16
Under surface PD-L1 immunofluorescence intensity, Cn1cnc(N)c2ncnc1-2 [3-Methyladenine (3-MA)] shows 1.05
Under surface PD-L1 immunofluorescence intensity, CNCC[C@@H](Oc1ccccc1C)c1ccccc1 [Tomoxetine hydrochloride] shows 0.99
Under surface PD-L1 immunofluorescence intensity, CC1=CC(=O)c2ccccc2C1=O [Menadione] shows 1.03
Under surface PD-L1 immunofluorescence intensity, NS(=O)(=O)C#Cc1ccccc1 [Pifithrin->m] shows 0.953
